Reference: patent US20240335452A1, “COMPOSITIONS AND METHODS OF COMBINATION THERAPY FOR TARGETING LYMPHOMA” (Cullgen (Shanghai), Inc., priority 2021, published 2024)
“Also recorded” adds a separate entry of the source. For at least one compound, name, drawing or mass did not settle the structure.

How the values were obtained:
[1] = tested on: SU-DHL-10 cells; assay: Cell viability assay (CellTiter-Glo) in SU-DHL-10 cells; format: cell-based, human
Experimental: (§1) Experiments were performed in cultured human cells to assess the efficacy of combined EZH2 inhibitor and immunomodulatory drug (e.g., an IMiD) treatment using an EZH2-mutant DLBCL cell line, SU-DHL-10, and an EZH2-wild type line, OCI-LY7. Cells were purchased from Nanjing Cobioer Biotechnology. SU-DHL-10 and OCI-LY7 cells were cultured at 37° C. with 5% CO2 in RPMI 1640 Medium supplemented with 10% fetal bovine serum. Cells were authenticated using the short tandem repeat (STR) assays. Mycoplasma test results were negative.
(§2) The cultured cells were seeded at a density of 5000 cells per well in 96-well assay plates and treated with test compounds at 10 μM followed by a 11-point 3-fold serial dilution or an 8-point 10-fold serial dilution. Cell viability was determined after 5 days, using the CellTiter-Glo assay kit (Promega) according to the manufacturer's instructions. The dose-response curves were determined and IC50 values were calculated using the GraphPad Prism software following a nonlinear regression (least squares fit) method. Each data point in the figure represents the mean values of at least two technical replicates ± standard deviation.
(§3) Cells were treated with EZH2 inhibitors in the presence of IMiDs at concentrations sufficient to induce degradation of IKZF1 and IKZF3 but not enough to kill cells. CC-122 and CC-220 were tested at a concentration of 1 μM; CC-92480 and CFT7455 were tested at a concentration of 1 nM; and CC-99282 was tested at a concentration of 10 nM.

[2] = tested on: OCI-LY7 cells; assay: Cell viability assay (CellTiter-Glo) in OCI-LY7 cells; format: cell-based, human
Experimental: as §1, §2, §3

**Q.** Which results are given for `CCN(c1cc(-c2ccc(CN3CCOCC3)cc2)cc(C(=O)NCc2c(C)cc(C)[nH]c2=O)c1C)C1CCOCC1` [EPZ-6438, tazemetostat]?
**A.** cell viability (sensitivity of the cells to the compound in combination) ([1]; SU-DHL-10, in the presence of 1 nM CC-92480, 5 days): highly sensitive; also recorded: lowered cell viability more than treatment with EPZ-6438 alone; cell viability (sensitivity of the cells to the compound in combination) ([1]; SU-DHL-10, in the presence of 1 μM CC-122, 5 days): highly sensitive; also recorded: lowered cell viability more than treatment with EPZ-6438 alone; cell viability (sensitivity of the cells to the compound in combination) ([1]; SU-DHL-10, in the presence of 1 μM CC-220, 5 days): highly sensitive; also recorded: lowered cell viability more than treatment with EPZ-6438 alone; cell viability (sensitivity of the cells to the compound in combination) ([2]; OCI-LY7, in the presence of 1 nM CC-92480, 5 days): highly sensitive; also recorded: lowered cell viability more than treatment with EPZ-6438 alone; cell viability (sensitivity of the cells to the compound in combination) ([2]; OCI-LY7, in the presence of 1 μM CC-122, 5 days): highly sensitive; also recorded: lowered cell viability more than treatment with EPZ-6438 alone; cell viability (sensitivity of the cells to the compound in combination) ([2]; OCI-LY7, in the presence of 1 μM CC-220, 5 days): highly sensitive
